{"sequences": {"note": "Protein sequences, listed by entry. Tags and fused reporters are not part of them. Lines headed by an entry give the natural chain unless they say otherwise; changes in a name come on top.", "UniProt Q9BY77": "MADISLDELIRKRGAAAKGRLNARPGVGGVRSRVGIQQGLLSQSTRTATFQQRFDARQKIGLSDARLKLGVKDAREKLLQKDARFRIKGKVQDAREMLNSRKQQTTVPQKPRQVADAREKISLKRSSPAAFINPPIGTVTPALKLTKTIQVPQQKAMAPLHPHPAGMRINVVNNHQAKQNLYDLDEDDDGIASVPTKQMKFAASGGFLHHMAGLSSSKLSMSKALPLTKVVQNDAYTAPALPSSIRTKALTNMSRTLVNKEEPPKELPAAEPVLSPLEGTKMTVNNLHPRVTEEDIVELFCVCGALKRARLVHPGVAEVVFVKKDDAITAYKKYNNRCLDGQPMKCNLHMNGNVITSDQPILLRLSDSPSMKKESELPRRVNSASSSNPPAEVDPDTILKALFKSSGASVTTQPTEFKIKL", "UniProt P28340": "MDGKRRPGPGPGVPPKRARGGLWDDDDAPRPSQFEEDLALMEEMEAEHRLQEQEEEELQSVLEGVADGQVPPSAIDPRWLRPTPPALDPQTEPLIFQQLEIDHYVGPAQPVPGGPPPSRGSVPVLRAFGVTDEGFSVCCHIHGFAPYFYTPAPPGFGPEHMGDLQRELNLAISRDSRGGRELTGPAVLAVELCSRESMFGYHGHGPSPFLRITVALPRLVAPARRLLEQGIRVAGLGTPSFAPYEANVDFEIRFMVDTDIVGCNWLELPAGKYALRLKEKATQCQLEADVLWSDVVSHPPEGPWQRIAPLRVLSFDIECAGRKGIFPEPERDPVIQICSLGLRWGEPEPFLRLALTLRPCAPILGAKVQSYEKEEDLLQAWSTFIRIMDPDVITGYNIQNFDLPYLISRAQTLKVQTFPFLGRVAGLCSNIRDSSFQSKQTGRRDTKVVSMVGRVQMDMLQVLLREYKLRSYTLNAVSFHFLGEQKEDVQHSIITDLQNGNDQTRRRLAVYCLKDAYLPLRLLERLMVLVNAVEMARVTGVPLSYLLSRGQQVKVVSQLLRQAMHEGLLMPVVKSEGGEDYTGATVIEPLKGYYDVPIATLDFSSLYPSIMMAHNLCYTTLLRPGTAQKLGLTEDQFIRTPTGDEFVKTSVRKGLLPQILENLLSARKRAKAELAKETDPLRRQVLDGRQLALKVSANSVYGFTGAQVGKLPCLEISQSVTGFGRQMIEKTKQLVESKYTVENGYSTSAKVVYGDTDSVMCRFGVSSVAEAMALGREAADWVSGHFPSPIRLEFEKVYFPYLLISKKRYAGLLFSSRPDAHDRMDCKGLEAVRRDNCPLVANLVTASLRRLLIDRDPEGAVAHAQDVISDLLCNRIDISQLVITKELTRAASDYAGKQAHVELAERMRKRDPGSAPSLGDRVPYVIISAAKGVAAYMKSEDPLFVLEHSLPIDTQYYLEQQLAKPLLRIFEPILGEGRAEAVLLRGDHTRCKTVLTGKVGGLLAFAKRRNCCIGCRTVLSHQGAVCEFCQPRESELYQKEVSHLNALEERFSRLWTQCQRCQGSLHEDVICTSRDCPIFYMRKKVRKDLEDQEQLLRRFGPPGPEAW", "UniProt Q9Y2S7": "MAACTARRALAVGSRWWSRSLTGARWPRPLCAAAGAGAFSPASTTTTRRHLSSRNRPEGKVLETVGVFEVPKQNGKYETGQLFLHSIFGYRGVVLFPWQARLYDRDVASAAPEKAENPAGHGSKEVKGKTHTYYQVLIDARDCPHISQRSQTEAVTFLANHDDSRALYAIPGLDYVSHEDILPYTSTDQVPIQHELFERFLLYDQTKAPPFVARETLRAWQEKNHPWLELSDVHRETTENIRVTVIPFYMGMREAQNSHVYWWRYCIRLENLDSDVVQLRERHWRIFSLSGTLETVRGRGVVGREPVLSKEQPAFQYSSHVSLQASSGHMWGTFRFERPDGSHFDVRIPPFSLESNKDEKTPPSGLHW", "UniProt Q9UHN1": "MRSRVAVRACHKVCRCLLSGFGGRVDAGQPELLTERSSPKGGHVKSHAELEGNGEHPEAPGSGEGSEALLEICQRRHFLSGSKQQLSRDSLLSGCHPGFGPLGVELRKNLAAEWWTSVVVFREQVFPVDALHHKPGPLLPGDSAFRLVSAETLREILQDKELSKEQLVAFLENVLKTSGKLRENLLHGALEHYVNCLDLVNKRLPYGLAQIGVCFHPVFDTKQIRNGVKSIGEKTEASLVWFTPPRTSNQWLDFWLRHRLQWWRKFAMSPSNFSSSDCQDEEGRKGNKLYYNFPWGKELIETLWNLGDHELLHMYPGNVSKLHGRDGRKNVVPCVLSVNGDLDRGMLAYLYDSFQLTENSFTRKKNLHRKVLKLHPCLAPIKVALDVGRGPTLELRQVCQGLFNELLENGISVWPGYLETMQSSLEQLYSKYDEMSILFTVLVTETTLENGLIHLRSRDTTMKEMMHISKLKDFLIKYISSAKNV", "UniProt Q9UNA4": "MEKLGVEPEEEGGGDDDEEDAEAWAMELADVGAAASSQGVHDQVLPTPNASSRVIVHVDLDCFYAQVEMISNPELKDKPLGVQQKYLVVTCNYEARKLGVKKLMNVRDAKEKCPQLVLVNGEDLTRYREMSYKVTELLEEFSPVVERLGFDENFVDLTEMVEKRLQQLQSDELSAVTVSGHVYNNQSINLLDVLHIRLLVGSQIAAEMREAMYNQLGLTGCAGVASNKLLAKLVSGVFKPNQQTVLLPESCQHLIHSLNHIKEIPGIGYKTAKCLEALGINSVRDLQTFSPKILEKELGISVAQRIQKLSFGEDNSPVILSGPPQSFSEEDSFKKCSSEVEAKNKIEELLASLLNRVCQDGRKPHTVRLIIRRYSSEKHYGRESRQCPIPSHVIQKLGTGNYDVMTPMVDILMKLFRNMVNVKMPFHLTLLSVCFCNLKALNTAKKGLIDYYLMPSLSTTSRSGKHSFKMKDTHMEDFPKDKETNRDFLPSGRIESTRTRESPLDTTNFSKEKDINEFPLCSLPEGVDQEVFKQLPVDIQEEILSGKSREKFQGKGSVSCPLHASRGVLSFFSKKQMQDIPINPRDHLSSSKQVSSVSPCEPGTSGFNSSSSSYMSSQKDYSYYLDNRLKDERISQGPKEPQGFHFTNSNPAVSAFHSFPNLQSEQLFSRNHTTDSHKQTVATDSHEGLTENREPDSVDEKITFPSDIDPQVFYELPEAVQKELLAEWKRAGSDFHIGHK", "UniProt Q8NBT0": "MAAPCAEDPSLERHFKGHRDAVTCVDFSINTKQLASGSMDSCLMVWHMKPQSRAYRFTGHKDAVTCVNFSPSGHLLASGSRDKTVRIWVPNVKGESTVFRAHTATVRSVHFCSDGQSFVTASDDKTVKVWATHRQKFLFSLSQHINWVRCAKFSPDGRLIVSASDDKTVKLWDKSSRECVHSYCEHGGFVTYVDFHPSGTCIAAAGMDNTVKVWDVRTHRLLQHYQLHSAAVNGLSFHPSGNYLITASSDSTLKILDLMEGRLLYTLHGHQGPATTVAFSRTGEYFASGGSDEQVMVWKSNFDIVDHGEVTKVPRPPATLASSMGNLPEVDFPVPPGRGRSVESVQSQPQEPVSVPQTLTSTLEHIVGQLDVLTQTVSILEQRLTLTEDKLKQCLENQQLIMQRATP", "UniProt Q86W92": "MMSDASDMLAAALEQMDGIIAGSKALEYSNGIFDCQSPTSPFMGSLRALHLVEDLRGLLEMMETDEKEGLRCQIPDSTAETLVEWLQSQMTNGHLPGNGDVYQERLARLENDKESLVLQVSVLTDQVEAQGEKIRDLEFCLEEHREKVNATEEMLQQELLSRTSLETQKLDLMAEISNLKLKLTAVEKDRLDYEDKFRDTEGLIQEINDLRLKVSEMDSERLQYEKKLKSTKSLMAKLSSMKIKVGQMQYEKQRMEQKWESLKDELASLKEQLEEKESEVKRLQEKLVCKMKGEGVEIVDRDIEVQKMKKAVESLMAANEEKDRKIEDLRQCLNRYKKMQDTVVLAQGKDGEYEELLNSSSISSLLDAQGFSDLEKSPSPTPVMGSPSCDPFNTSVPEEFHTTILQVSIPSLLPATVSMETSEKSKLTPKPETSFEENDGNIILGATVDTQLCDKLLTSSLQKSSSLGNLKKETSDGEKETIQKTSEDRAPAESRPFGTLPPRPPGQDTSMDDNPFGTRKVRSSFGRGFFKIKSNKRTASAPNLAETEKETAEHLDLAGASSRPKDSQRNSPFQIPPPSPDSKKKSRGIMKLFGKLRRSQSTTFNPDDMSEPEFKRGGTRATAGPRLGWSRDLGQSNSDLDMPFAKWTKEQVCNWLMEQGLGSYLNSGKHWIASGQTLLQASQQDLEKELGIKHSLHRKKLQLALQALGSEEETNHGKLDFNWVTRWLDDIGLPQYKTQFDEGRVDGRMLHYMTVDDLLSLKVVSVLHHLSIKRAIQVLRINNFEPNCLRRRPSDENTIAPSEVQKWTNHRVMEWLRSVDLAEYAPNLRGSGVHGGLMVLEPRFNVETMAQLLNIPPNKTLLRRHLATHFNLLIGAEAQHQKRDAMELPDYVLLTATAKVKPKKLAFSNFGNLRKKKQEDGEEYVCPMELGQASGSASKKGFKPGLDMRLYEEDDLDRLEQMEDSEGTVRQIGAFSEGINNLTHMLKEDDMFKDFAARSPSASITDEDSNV", "UniProt P16435": "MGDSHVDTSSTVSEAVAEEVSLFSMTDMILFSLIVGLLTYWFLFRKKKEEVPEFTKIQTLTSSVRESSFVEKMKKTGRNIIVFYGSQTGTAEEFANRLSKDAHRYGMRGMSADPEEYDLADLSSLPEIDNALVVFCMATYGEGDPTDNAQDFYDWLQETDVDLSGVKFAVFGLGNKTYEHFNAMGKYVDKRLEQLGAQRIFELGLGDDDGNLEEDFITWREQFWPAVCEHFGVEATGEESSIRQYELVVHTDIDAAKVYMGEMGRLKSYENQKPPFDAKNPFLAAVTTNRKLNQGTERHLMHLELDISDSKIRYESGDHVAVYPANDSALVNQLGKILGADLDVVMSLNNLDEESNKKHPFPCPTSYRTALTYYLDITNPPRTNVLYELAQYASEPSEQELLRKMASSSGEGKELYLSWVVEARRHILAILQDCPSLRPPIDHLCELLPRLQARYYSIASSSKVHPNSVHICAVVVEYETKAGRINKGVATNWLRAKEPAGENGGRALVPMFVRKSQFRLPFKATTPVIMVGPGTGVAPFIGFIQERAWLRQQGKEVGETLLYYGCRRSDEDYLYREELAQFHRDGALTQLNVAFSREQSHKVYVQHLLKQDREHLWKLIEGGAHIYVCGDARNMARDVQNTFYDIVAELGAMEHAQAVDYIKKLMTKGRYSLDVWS", "UniProt Q15181": "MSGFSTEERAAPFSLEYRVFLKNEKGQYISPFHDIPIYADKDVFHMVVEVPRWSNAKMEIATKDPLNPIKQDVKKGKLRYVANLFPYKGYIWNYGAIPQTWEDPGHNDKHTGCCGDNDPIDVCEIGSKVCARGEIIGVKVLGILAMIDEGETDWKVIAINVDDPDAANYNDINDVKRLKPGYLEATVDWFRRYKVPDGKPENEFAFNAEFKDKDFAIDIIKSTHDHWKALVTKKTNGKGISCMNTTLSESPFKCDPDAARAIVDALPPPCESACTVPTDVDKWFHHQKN", "UniProt Q9UNP9": "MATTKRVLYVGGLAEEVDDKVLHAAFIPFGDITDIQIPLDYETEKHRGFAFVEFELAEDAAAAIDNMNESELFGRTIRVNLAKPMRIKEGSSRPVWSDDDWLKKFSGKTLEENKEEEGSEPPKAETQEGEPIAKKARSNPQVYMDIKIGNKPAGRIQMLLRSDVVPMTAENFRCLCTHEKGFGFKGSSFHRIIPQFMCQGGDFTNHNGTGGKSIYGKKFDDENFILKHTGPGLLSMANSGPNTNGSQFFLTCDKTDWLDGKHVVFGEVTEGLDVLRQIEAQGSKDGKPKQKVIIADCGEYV", "UniProt P14859": "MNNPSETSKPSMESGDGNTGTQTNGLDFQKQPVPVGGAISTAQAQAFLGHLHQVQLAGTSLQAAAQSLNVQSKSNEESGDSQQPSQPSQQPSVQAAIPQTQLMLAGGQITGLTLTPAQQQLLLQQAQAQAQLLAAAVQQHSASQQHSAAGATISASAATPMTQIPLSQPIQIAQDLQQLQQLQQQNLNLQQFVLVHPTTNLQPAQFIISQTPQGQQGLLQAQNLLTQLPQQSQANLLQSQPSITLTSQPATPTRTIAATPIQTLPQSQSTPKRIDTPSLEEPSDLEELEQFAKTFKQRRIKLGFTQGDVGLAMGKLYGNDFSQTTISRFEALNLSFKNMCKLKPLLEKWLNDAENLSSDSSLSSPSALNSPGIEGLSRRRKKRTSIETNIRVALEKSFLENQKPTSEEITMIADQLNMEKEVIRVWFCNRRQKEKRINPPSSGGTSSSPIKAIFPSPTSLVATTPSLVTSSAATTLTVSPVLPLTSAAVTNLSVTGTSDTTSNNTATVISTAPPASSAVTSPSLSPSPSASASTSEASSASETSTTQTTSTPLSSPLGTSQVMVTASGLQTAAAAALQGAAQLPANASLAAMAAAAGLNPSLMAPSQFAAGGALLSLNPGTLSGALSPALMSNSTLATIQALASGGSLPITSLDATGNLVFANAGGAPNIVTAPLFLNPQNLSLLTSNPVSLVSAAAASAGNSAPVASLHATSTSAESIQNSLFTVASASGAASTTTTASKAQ"}, "source": "the supplement of paper PMC12067093", "about": "“Discovery and optimisation of a covalent ligand for TRIM25 and its application to targeted protein ubiquitination” (Chemical Science, 2025)", "note": "The other results are listed elsewhere or left out.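 Further: competitive chemoproteomic profiling in live THP-1 cells with an iodoacetamide desthiobiotin (IA-DTB) probe, comparing probe-labelled peptide intensities in compound-treated cells against DMSO-treated controls.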"}
{"compound": "CC1Cc2ccccc2N1C(=O)C1CCCN(C1)C(=O)CCl (mixture of isomers) [TRIM25 ligand 11 (diastereomer mixture)]", "test": "probe-labelled cysteine peptide fold change vs DMSO (competition) (log2 fold change); higher = less target engagement (more negative = stronger competition)", "settings": "10 µM; THP-1; incubation time: 4 h"}
{"target": "POLM_Q9NP87_222_VVQELLEHGVCEEVER (UniProt Q9NP87)", "probe-labelled cysteine peptide fold change": -0.0574}
{"target": "POLDIP3_Q9BY77_338_CLDGQPMK (UniProt Q9BY77)", "probe-labelled cysteine peptide fold change": -0.0712}
{"target": "POLA2_Q14181_590_QSPCIAVQVVR (UniProt Q14181)", "probe-labelled cysteine peptide fold change": -0.103}
{"target": "POLR2B_P30876_1137_THTYECR (UniProt P30876)", "probe-labelled cysteine peptide fold change": 0.22}
{"target": "POLD1_P28340_837_RDNCPLVANLVTASLRR (UniProt P28340)", "probe-labelled cysteine peptide fold change": -0.3}
{"target": "POLR1B_Q9H9Y6_103_EANVYPAECR (UniProt Q9H9Y6)", "probe-labelled cysteine peptide fold change": 0.0526}
{"target": "POLDIP2_Q9Y2S7_143_DCPHISQR (UniProt Q9Y2S7)", "probe-labelled cysteine peptide fold change": 0.173}
{"target": "POLD1_P28340_1061+1071_CQGSLHEDVICTSR (UniProt P28340)", "probe-labelled cysteine peptide fold change": 0.00175}
{"target": "POLD1_P28340_761_VVYGDTDSVMCR (UniProt P28340)", "probe-labelled cysteine peptide fold change": 0.0333}
{"target": "POLD1_P28340_193_ELTGPAVLAVELCSR (UniProt P28340)", "probe-labelled cysteine peptide fold change": -0.0441}
{"target": "POLR2A_P24928_981_VVLPCNLLR (UniProt P24928)", "probe-labelled cysteine peptide fold change": -0.146}
{"target": "POLG2_Q9UHN1_196_LRENLLHGALEHYVNCLDLVNK (UniProt Q9UHN1)", "probe-labelled cysteine peptide fold change": 0.0333}
{"target": "POLI_Q9UNA4_336_CSSEVEAK (UniProt Q9UNA4)", "probe-labelled cysteine peptide fold change": 0.041}
{"target": "POLD1_P28340_1026+1029_TVLSHQGAVCEFCQPR (UniProt P28340)", "probe-labelled cysteine peptide fold change": -0.0904}
{"target": "POLR3B_Q9NW08_1054_DCLIGYGASMLLLER (UniProt Q9NW08)", "probe-labelled cysteine peptide fold change": 0.325}
{"target": "POC1A_Q8NBT0_5_AAPCAEDPSLER (UniProt Q8NBT0)", "probe-labelled cysteine peptide fold change": -0.0524}
{"target": "POLR2K_P53803_19+22_QQPMIYICGECHTENEIK (UniProt P53803)", "probe-labelled cysteine peptide fold change": -0.124}
{"target": "PPFIBP1_Q86W92_140_IRDLEFCLEEHREK (UniProt Q86W92)", "probe-labelled cysteine peptide fold change": -0.0769}
{"target": "POLR2L_P62875_10_CFTCGK (UniProt P62875)", "probe-labelled cysteine peptide fold change": -0.177}
{"target": "POLR1A_O95602_822_IIEESTHCGPQAVR (UniProt O95602)", "probe-labelled cysteine peptide fold change": 0.102}
{"target": "POLR1A_O95602_446_SVICPDMYINTNEIGIPMVFATK (UniProt O95602)", "probe-labelled cysteine peptide fold change": -0.109}
{"target": "POR_P16435_434+445_HILAILQDCPSLRPPIDHLCELLPR (UniProt P16435)", "probe-labelled cysteine peptide fold change": 0.00998}
{"target": "PPA1_Q15181_274_AIVDALPPPCESACTVPTDVDK (UniProt Q15181)", "probe-labelled cysteine peptide fold change": 0.0383}
{"target": "POLR3B_Q9NW08_1054_LGEMERDCLIGYGASMLLLER (UniProt Q9NW08)", "probe-labelled cysteine peptide fold change": 0.0847}
{"target": "POLD1_P28340_512_LAVYCLK (UniProt P28340)", "probe-labelled cysteine peptide fold change": 0.146}
{"target": "POLR1B_Q9H9Y6_944_SAALHGLCHDATPFIFSEENSALEYFGEMLK (UniProt Q9H9Y6)", "probe-labelled cysteine peptide fold change": 0.236}
{"target": "PPIE_Q9UNP9_198_IIPQFMCQGGDFTNHNGTGGK (UniProt Q9UNP9)", "probe-labelled cysteine peptide fold change": -0.0102}
{"target": "POGLUT1_Q8NBL1_108_CSGVEHFILEVIGR (UniProt Q8NBL1)", "probe-labelled cysteine peptide fold change": 0.0531}
{"target": "POFUT1_Q9H488_140_KTCPMK (UniProt Q9H488)", "probe-labelled cysteine peptide fold change": -0.0813}
{"target": "POLR2G_P62487_106_VGLFTEIGPMSCFISR (UniProt P62487)", "probe-labelled cysteine peptide fold change": 0.138}
{"target": "POU2F1_P14859-2_4_MLDCSDYVLDSR (UniProt P14859)", "probe-labelled cysteine peptide fold change": -0.206}
{"target": "PPA1_Q15181_270+274_AIVDALPPPCESACTVPTDVDK (UniProt Q15181)", "probe-labelled cysteine peptide fold change": 0.00395}
{"target": "POLD1_P28340_873_LLIDRDPEGAVAHAQDVISDLLCNR (UniProt P28340)", "probe-labelled cysteine peptide fold change": 0.0571}
{"target": "POLR2G_P62487_127_HSIPSEMEFDPNSNPPCYK (UniProt P62487)", "probe-labelled cysteine peptide fold change": -0.0447}
{"target": "POLR2I_P36954_42+52_NCDYQQEADNSCIYVNK (UniProt P36954)", "probe-labelled cysteine peptide fold change": 0.0911}
{"target": "POR_P16435_363_HPFPCPTSYR (UniProt P16435)", "probe-labelled cysteine peptide fold change": 0.0172}
{"compound": "CC1Cc2ccccc2N1C(=O)C1CCCN(C1)C(=O)CCl (mixture of isomers) [TRIM25 ligand 11 (diastereomer mixture)]", "test": "probe-labelled cysteine peptide fold change vs DMSO (competition) (log2 fold change); higher = less target engagement (more negative = stronger competition)", "settings": "50 µM; THP-1; incubation time: 4 h"}
{"target": "POLM_Q9NP87_222_VVQELLEHGVCEEVER (UniProt Q9NP87)", "probe-labelled cysteine peptide fold change": -0.00939}
{"target": "POLDIP3_Q9BY77_338_CLDGQPMK (UniProt Q9BY77)", "probe-labelled cysteine peptide fold change": -0.127}
{"target": "POLA2_Q14181_590_QSPCIAVQVVR (UniProt Q14181)", "probe-labelled cysteine peptide fold change": 0.123}
{"target": "POLR2B_P30876_1137_THTYECR (UniProt P30876)", "probe-labelled cysteine peptide fold change": 0.0583}
{"target": "POLD1_P28340_837_RDNCPLVANLVTASLRR (UniProt P28340)", "probe-labelled cysteine peptide fold change": -0.0981}
{"target": "POLR1B_Q9H9Y6_103_EANVYPAECR (UniProt Q9H9Y6)", "probe-labelled cysteine peptide fold change": 0.11}
{"target": "POLDIP2_Q9Y2S7_143_DCPHISQR (UniProt Q9Y2S7)", "probe-labelled cysteine peptide fold change": -0.356}
{"target": "POLD1_P28340_1061+1071_CQGSLHEDVICTSR (UniProt P28340)", "probe-labelled cysteine peptide fold change": 0.144}
{"target": "POLD1_P28340_761_VVYGDTDSVMCR (UniProt P28340)", "probe-labelled cysteine peptide fold change": -0.0227}
{"target": "POLD1_P28340_193_ELTGPAVLAVELCSR (UniProt P28340)", "probe-labelled cysteine peptide fold change": 0.181}
{"target": "POLR2A_P24928_981_VVLPCNLLR (UniProt P24928)", "probe-labelled cysteine peptide fold change": 0.143}
{"target": "POLG2_Q9UHN1_196_LRENLLHGALEHYVNCLDLVNK (UniProt Q9UHN1)", "probe-labelled cysteine peptide fold change": 0.0806}
{"target": "POLI_Q9UNA4_336_CSSEVEAK (UniProt Q9UNA4)", "probe-labelled cysteine peptide fold change": -0.0479}
{"target": "POLD1_P28340_1026+1029_TVLSHQGAVCEFCQPR (UniProt P28340)", "probe-labelled cysteine peptide fold change": -0.197}
{"target": "POLR3B_Q9NW08_1054_DCLIGYGASMLLLER (UniProt Q9NW08)", "probe-labelled cysteine peptide fold change": 0.139}
{"target": "POC1A_Q8NBT0_5_AAPCAEDPSLER (UniProt Q8NBT0)", "probe-labelled cysteine peptide fold change": 0.146}
{"target": "POLR2K_P53803_19+22_QQPMIYICGECHTENEIK (UniProt P53803)", "probe-labelled cysteine peptide fold change": -0.215}
{"target": "PPFIBP1_Q86W92_140_IRDLEFCLEEHREK (UniProt Q86W92)", "probe-labelled cysteine peptide fold change": -0.054}
{"target": "POLR2L_P62875_10_CFTCGK (UniProt P62875)", "probe-labelled cysteine peptide fold change": -0.12}
{"target": "POLR1A_O95602_822_IIEESTHCGPQAVR (UniProt O95602)", "probe-labelled cysteine peptide fold change": -0.141}
{"target": "POLR1A_O95602_446_SVICPDMYINTNEIGIPMVFATK (UniProt O95602)", "probe-labelled cysteine peptide fold change": -0.212}
{"target": "POR_P16435_434+445_HILAILQDCPSLRPPIDHLCELLPR (UniProt P16435)", "probe-labelled cysteine peptide fold change": -0.182}
{"target": "PPA1_Q15181_274_AIVDALPPPCESACTVPTDVDK (UniProt Q15181)", "probe-labelled cysteine peptide fold change": -0.238}
{"target": "POLR3B_Q9NW08_1054_LGEMERDCLIGYGASMLLLER (UniProt Q9NW08)", "probe-labelled cysteine peptide fold change": 0.116}
{"target": "POLD1_P28340_512_LAVYCLK (UniProt P28340)", "probe-labelled cysteine peptide fold change": 0.296}
{"target": "POLR1B_Q9H9Y6_944_SAALHGLCHDATPFIFSEENSALEYFGEMLK (UniProt Q9H9Y6)", "probe-labelled cysteine peptide fold change": 0.0202}
{"target": "PPIE_Q9UNP9_198_IIPQFMCQGGDFTNHNGTGGK (UniProt Q9UNP9)", "probe-labelled cysteine peptide fold change": -0.136}
{"target": "POGLUT1_Q8NBL1_108_CSGVEHFILEVIGR (UniProt Q8NBL1)", "probe-labelled cysteine peptide fold change": 0.0525}
{"target": "POFUT1_Q9H488_140_KTCPMK (UniProt Q9H488)", "probe-labelled cysteine peptide fold change": -0.0687}
{"target": "POLR2G_P62487_106_VGLFTEIGPMSCFISR (UniProt P62487)", "probe-labelled cysteine peptide fold change": 0.317}
{"target": "POU2F1_P14859-2_4_MLDCSDYVLDSR (UniProt P14859)", "probe-labelled cysteine peptide fold change": -0.0109}
{"target": "PPA1_Q15181_270+274_AIVDALPPPCESACTVPTDVDK (UniProt Q15181)", "probe-labelled cysteine peptide fold change": -0.283}
{"target": "POLD1_P28340_873_LLIDRDPEGAVAHAQDVISDLLCNR (UniProt P28340)", "probe-labelled cysteine peptide fold change": -0.0386}
{"target": "POLR2G_P62487_127_HSIPSEMEFDPNSNPPCYK (UniProt P62487)", "probe-labelled cysteine peptide fold change": -0.117}
{"target": "POLR2I_P36954_42+52_NCDYQQEADNSCIYVNK (UniProt P36954)", "probe-labelled cysteine peptide fold change": -0.0405}
{"target": "POR_P16435_363_HPFPCPTSYR (UniProt P16435)", "probe-labelled cysteine peptide fold change": 0.0163}
